The record followed here is article PMC4633129.

In this experiment the target is T1, FLAG-tagged PHB1 (prohibitin 1) (UniProt P35232).
T1 sequence: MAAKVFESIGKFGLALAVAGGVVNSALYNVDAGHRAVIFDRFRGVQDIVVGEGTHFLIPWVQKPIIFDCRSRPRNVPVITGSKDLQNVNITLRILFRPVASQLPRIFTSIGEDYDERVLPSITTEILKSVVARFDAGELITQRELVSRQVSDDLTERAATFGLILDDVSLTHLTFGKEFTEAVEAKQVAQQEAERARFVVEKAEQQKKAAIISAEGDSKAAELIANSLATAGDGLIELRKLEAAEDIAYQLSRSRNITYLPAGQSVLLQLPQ
The experiment is described as follows: co-IP; anti-FLAG M2 antibody with protein G Plus/A-agarose from lysates of H9c2 cells transfected with FLAG-PHB1 and FLAG-PHB2; cells incubated 0, 15 or 30 min with FL3 (100 nM) before lysis; IP buffer 20 mM Tris-HCl, 5 M NaCl (so in the source), 2 mM EDTA, 1% Triton X-100; western blot with anti-STAT3 or anti-phospho-STAT3.

Results are given in words; binding and its absence hold for the method and conditions named. Binding seen in cells or lysates may run through a third protein. Sequences can lack the tags named with a protein.

Take ERK (rat (endogenous in H9c2)): the binding result is “no binding”. In the case of AKT (rat (endogenous in H9c2)), the binding result is “no binding”.
